Measured values published in PMC6199744, “Development of Chemical Proteomics for the Folateome and Analysis of the Kinetoplastid Folateome” (ACS Infectious Diseases, 2018).
This continues a long series; more values of the same kind are listed elsewhere.

Test system: L. major lysate proteins
Test: Multitargeted bead mixture chemoproteomics, single concentration competition, proteome-wide
Type: binding
Conditions: for fold change: vehicle control = 1

Nc1nc2c(c(=O)[nH]1)N(C=O)C(CNc1ccc(C(=O)N[C@@H](CCC(=O)O)C(=O)O)cc1)CN2 (stereo partly drawn) [LEU, leucovorin]
fold change (protein LMJF.18.1380 PYRUVATE DEHYDROGENASE E1 COMPONENT ALPHA SUBUNIT, PUTATIVE): 1.06 | fold change (protein LMJF.18.1510 P-TYPE H -ATPASE, PUTATIVE): 0.9 | fold change vs vehicle control (protein LMJF.19.0300 RNA BINDING PROTEIN, PUTATIVE): 0.92 | fold change (protein LMJF.19.0750 HYPOTHETICAL PROTEIN, CONSERVED): 1 | fold change (protein LMJF.19.0995 4-COUMARATE:COA LIGASE-LIKE PROTEIN): 1.09 | fold change (protein LMJF.19.1530 PEPT[…]-LIKE PROTEIN): 1.14 | fold change (protein LMJF.20.0100 PHOSPH[…] C, GLYCOSOMAL): 1.02 | fold change vs vehicle control (protein LMJF.20.1180 CALPAIN-LIKE CYSTEINE PEPTIDASE, PUTATIVE,CYSTEINE PEPTIDASE, CLAN CA, FAMILY C2, PUTATIVE): 0.98 | fold change (protein LMJF.21.0540 LA RNA BINDING PROTEIN, PUTATIVE): 1.07 | fold change vs vehicle control (protein LMJF.21.1060 40S RIBOSOMAL PROTEIN S23, PUTATIVE): 1.02 | fold change (protein LMJF.21.1090 T-COMPLEX PROTEIN 1, DELTA SUBUNIT, PUTATIVE): 0.98 | fold change vs vehicle control (protein LMJF.21.1552 RNA HELICASE, PUTATIVE): 1 | fold change (protein LMJF.21.1555 HY[…], CONSERVED): 0.93 | fold change (protein LMJF.21.1580 HY[…], UNKNOWN FUNCTION): 1.08 | fold change (protein LMJF.21.1700 […] 2 SUBUNIT, PUTATIVE): 0.98 | fold change (protein LMJF.21.1710 […] OXIDASE SUBUNIT VI, PUTATIVE): 1.07 | fold change (protein LMJF.22.0270 HY[…], CONSERVED): 0.91 | fold change (protein LMJF.22.0420 40S RIBOSOMAL PROTEIN S15, PUTATIVE): 0.86 | fold change (protein LMJF.22.1540 ALANYL-TRNA SYNTHETASE, PUTATIVE): 0.96 | fold change (protein LMJF.22.1630 CCR4 […], PUTATIVE): 0.84 | fold change (protein LMJF.23.0110 GDP-MANNOSE PYROPHOSPHORYLASE): 1.02 | fold change (protein LMJF.23.0200 ENDORIBONUCLEASE L-PSP (PB5), PUTATIVE): 0.99 | fold change (protein LMJF.23.0640 HY[…], CONSERVED): 1.11 | fold change (protein LMJF.23.0810 ACTIN I[…]-LIKE PROTEIN): 0.93 | fold change vs vehicle control (protein LMJF.24.0280 DYNEIN INTERMEDIATE-CHAIN-LIKE PROTEIN): 1.03 | fold change (protein LMJF.24.0770 MALIC ENZYME, PUTATIVE): 0.9 | fold change (protein LMJF.24.1840 LYSOPHOSPHOLIPASE, PUTATIVE): 1.11 | fold change (protein LMJF.25.0120 ELECTRON TRANSFER FLAVOPROTEIN, PUTATIVE): 0.97 | fold change (protein LMJF.25.1540 HYPOTHETICAL PROTEIN, CONSERVED (mitochondrial RNA binding complex 1 subunit, putative)): 0.9 | fold change (protein LMJF.25.1710 PYRUVATE DEHYDROGENASE E1 BETA SUBUNIT, PUTATIVE): 1.04 | fold change (protein LMJF.26.0830 […], PUTATIVE,ASPARTATE--AMMONIA LIGASE, PUTATIVE): 1.24 | fold change (protein LMJF.26.1960 HYPOTHETICAL PROTEIN, CONSERVED): 0.94 | fold change (protein LMJF.26.2000 HYPOTHETICAL PROTEIN, CONSERVED (methyltransferase domain containing protein, putative)): 1 | fold change (protein LMJF.27.0130 HYPOTHETICAL PROTEIN, CONSERVED): 0.83 | fold change (protein LMJF.27.0880 2-OXOGLUTARATE DEHYDROGENASE SUBUNIT, PUTATIVE): 0.9 | fold change (protein LMJF.27.0930 ISOVALERYL-COA DEHYDROGENASE, PUTATIVE): 1.07 | fold change vs vehicle control (protein LMJF.27.1300 HYPOTHETICAL PROTEIN, CONSERVED): 0.99 | fold change (protein LMJF.27.1310 ARGINYL-TRNA SYNTHETASE, PUTATIVE): 1.08 | fold change (protein LMJF.27.2030 BRANCHED-CHAIN AMINO ACID AMINOTRANSFERASE, PUTATIVE): 0.96 | fold change (protein LMJF.27.2400 HEAT SHOCK PROTEIN DNAJ, PUTATIVE): 1.06 | fold change (protein LMJF.28.0980 P27 PROTEIN, PUTATIVE): 1.03 | fold change vs vehicle control (protein LMJF.28.2260 GLYCOSOMAL MEMBRANE PROTEIN, PUTATIVE): 1 | fold change (protein LMJF.28.2420 2-OXOGLUTARATE DEHYDROGENASE, E2 COMPONENT, DIHYDROLIPOAMIDE SUCCINYLTRANSFERASE, PUTATIVE): 0.96 | fold change (protein LMJF.28.2510 ACYL-COA DEHYDROGENASE, PUTATIVE): 1.04 | fold change (protein LMJF.28.2680 CYTOCHROME OXIDASE ASSEMBLY PROTEIN-LIKE PROTEIN): 0.91 | fold change (protein LMJF.28.2750 ACTIVATED PROTEIN KINASE C RECEPTOR (LACK)): 1.13 | fold change (protein LMJF.29.0020 TRANSCRIPTION FACTOR-LIKE PROTEIN): 1 | fold change (protein LMJF.29.0820 CYSTEINE PEPTIDASE C (CPC)): 1.15 | fold change (protein LMJF.29.2240 AMINOPEPTIDASE, PUTATIVE,METALLO-PEPTIDASE, CLAN MA(E), FAMILY M1): 0.9 | fold change vs vehicle control (protein LMJF.30.0120 […] SYNTHASE): 1.01 | fold change (protein LMJF.30.0460 ASPARTYL-TRNA SYNTHETASE, PUTATIVE): 1.03 | fold change (protein LMJF.30.0630 HISTIDYL-TRNA SYNTHETASE, PUTATIVE): 1.11 | fold change (protein LMJF.30.0750 4-METHYL-5(BETA-HYDROXYETHYL)-THIAZOLE MON[…] PROTEIN, PUTATIVE): 1.03 | fold change (protein LMJF.30.2330 HY[…], UNKNOWN FUNCTION): 1.08 | fold change (protein LMJF.30.2350 SPHINGOSINE 1-PHOSPHATE LYASE): 1.06 | fold change (protein LMJF.30.2550 HEAT SHOCK 70-RELATED PROTEIN 1, MIT[…], PUTATIVE): 1.09 | fold change (protein LMJF.30.2970 GLYCERALDEHYDE 3-PHOSPHATE DEHYDROGENASE, GLYCOSOMAL): 0.99 | fold change (protein LMJF.30.3040 EUKARYOTIC TRANSLATION INITIATION FACTOR 3 SUBUNIT 7-LIKE PROTEIN): 0.99 | fold change (protein LMJF.30.3130 VALYL-TRNA SYNTHETASE, PUTATIVE): 1 | fold change (protein LMJF.30.3530 HYPOTHETICAL PROTEIN, CONSERVED): 0.99 | fold change (protein LMJF.30.3600 ATP SYNTHASE, EPSILON CHAIN, PUTATIVE): 0.93 | fold change (protein LMJF.31.0440 CYTOSKELETON-[…] CAP5 5, PUTATIVE): 1.02 | fold change (protein LMJF.31.1110 HY[…], CONSERVED (emp24/gp25L/p24 family/GOLD, putative)): 1.04 | fold change (protein LMJF.31.2280 ADP-RI[…], PUTATIVE): 1.12 | fold change (protein LMJF.31.2790 ADP-RI[…], PUTATIVE): 0.97 | fold change (protein LMJF.32.0050 PROTEIN TRANSPORT PROTEIN SEC13, PUTATIVE): 0.94
